Experimental data: publication PMC9932167

The chains behind the UniProt entries cited, without tags or fusion partners. Where a name states a change or a piece, a line headed by the entry shows the natural chain unless it says otherwise. A line that says so, or that is headed by a name, gives the form on record, which may keep a tag or linker.
UniProt Q1HFZ0: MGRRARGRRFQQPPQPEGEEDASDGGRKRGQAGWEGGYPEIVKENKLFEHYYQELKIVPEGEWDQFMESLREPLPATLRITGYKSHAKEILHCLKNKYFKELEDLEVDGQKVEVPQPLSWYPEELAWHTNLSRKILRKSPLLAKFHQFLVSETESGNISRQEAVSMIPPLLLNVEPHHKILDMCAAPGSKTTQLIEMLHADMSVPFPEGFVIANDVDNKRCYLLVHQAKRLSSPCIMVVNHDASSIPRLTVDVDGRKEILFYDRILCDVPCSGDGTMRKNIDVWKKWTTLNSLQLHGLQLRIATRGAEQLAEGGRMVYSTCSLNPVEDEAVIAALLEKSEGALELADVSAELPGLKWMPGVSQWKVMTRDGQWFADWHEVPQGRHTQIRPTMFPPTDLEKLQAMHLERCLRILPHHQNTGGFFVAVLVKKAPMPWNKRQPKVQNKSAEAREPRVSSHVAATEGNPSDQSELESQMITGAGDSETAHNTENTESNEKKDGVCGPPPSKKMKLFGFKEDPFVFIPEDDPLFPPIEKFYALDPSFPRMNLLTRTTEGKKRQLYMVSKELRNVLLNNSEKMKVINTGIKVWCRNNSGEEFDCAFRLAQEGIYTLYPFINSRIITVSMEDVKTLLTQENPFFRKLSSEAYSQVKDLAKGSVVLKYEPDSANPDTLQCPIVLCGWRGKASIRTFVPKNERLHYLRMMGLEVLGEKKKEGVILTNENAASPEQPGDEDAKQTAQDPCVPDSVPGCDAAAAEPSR
Retinoic acid receptor-related orphan receptor gamma t (RoRγt), endogenous in mouse Th17 cells (P51450-2, form named): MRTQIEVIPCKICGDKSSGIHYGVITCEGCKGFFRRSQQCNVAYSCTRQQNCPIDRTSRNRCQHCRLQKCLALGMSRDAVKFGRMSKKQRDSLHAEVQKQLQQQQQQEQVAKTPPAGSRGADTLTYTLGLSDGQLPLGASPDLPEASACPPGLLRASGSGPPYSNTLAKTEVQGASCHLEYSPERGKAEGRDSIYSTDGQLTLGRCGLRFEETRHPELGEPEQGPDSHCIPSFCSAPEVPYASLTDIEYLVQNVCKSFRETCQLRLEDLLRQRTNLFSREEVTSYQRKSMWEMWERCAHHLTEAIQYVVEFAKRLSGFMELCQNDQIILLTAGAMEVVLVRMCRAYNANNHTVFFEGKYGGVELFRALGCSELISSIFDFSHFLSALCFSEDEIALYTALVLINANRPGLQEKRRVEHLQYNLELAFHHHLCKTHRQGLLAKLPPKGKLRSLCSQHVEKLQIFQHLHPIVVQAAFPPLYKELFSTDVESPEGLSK

Molecular target: Nsun2 (RNA 5-methylcytosine methyltransferase), endogenous in mouse Th17 cells (mouse (endogenous in Th17 cells)) (UniProt Q1HFZ0)
Assay: affinity purification with mass spectrometry; endogenous Nsun2 immunoprecipitated with Nsun2 antibody and protein A/G Dynabeads from RIPA lysate of Th17 cells induced for 4 days; gel analysed by mass spectrometry

With “Retinoic acid receptor-related orphan receptor gamma t (RoRγt), endogenous in mouse Th17 cells (from UniProt P51450-2 1-495)” the binding was “binds”.

Results are given in words; binding and its absence hold for the method and conditions named. In cells and extracts the contact can be indirect. Here binding means that the protein was enriched with, or labelled near, the bait; the list need not be complete.
